Here are results for one compound from US20240252544A1, “Method for Producing Retinal Tissue” (RIKEN, priority 2021, published 2024).

Test [1] concerns Human ES cells genetically engineered so as to have Rx::Venus reporter gene (derived from KhES-1 strain). As to the kind of experiment: Differentiation of human ES cell aggregates into retinal tissue in suspension culture (SFEBq), microscope observation of aggregated masses. Particulars: for proportion of cell aggregates produced having an almost truly spherical shape: PD407824 in combination with 0.15 nM BMP4. It counts as cell-based. How it is done: Human ES cells genetically engineered so as to have Rx::Venus reporter gene (derived from KhES-1 strain (Non Patent Literature 3)) were cultured in the absence of a feeder cell (under feeder-free conditions) in accordance with the method described in “Scientific Reports, 4, 3594 (2014)”. As a culture medium for use in culturing in the absence of a feeder cell (feeder-free medium), StemFit medium (trade name: AK03N, manufactured by Ajinomoto Co., Inc.) was used, and as a scaffold as an alternative to feeder cells, Laminin511-E8 (trade name, manufactured by Nippi, Inc.) was used.
Specific operation of maintenance culture for human ES cells was performed as follows: First, human ES cells that reached sub-confluency (state where about 60% of the culture area was covered by cells) were washed with PBS and separated into single cells by use of TrypLE Select (trade name, manufactured by Life Technologies). Then, the separated human ES single cells were seeded in plastic culture dishes coated with Laminin 511-E8 and cultured under feeder-free conditions in StemFit medium in the presence of Y-27632 (ROCK inhibitor, 10 μM). When 6-well plates (for cell culture, culture area: 9.4 cm^2, manufactured by AGC TECHNO GLASS., LTD) were used as the plastic culture dishes, the number of separated human ES single cells to be seeded was specified as 0.4 to 1.2×10^4 cells per well. One day after seeding, the medium was exchanged with StemFit medium not containing Y-27632. Thereafter, the medium was exchanged with Y-27632-free StemFit medium once every 1 to 2 days. Thereafter, the cells were cultured under feeder-free conditions until 1 day before reaching sub-confluency. The human ES cells the 1 day before the sub-confluency were cultured for 1 day (preconditioning treatment) under feeder-free conditions in the presence of SB431542 (TGFβ signaling pathway inhibitor, 5 μM) and SAG (Shh signaling pathway agonist, 300 nM).
The human ES cells were washed with PBS, then treated for cell dispersions using TrypLE Select, and further separated into single cells by pipetting. Thereafter, the separated human ES single cells were suspended in 100 μL of a serum-free medium such that the density of cells per well of a non-cell adhesive 96-well culture plate (trade name: PrimeSurface, 96-well V-bottom plate, manufactured by Sumitomo Bakelite Co., Ltd.) was 1.2×10^4 cells, and subjected to suspension culture in the conditions of 37° C.and 5% CO2. The serum-free medium (gfCDM+KSR) used herein is a serum-free medium prepared by adding 10% KSR and 450 μM 1-monothioglycerol and 1× Chemically defined lipid concentrate to a mixture of culture fluids containing F-12 medium and IMDM medium in a ratio of 1:1.
At the initiation time of the suspension culture (Day 0 from initiation of the suspension culture), Y-27632 (ROCK inhibitor, final concentration: 10 μM) were added to the serum-free medium. On Day 3 from initiation of the suspension culture, 50 L of a culture medium not containing Y-27632 and containing human recombinant BMP4 (trade name: Recombinant Human BMP-4, manufactured by R&D) was added in such a manner that the final concentration of the exogeneous human recombinant BMP4 reached 0.15 nM or 1.5 nM. In addition, PD407824 (Tocris Bioscience) was added simultaneously with BMP4 at a final concentration of 1 μM.
Further, the aggregated masses (cell aggregates) of Day 14 from initiation of the suspension culture were transferred to a 90-mm low adhesive plate (manufactured by Sumitomo Bakelite Co., Ltd.) and cultured for 3 days in the conditions of 37° C. and 5% CO2 in a serum-free medium (DMEM/F12 medium supplemented with 1% N2 Supplement) containing a Wnt signaling pathway agonist (CHIR99021, 3 M) and a FGF signaling pathway inhibitor (SU5402, 5 μM). The aforementioned method was performed also in subsequent Examples in the same manner, unless otherwise specified.

Test [2] shares this test system. As to the kind of experiment: Immunostaining of frozen sections of aggregated masses, confocal fluorescence microscope. It counts as cell-based. The following applies: 1 μM PD407824 with 1.5 nM BMP4. An excerpt: The aggregated masses on Day 25 from initiation of the suspension culture were fixed with 4% PFA, subjected to replacement with 20% sucrose, and then frozen and sectioned. These frozen sections were subjected to immunostaining with DAPI, an anti-CHX10 antibody (trade name: Anti CHX10 Antibody, manufactured by EX alpha), an anti-MITF antibody (manufactured by EX alpha), an anti-collagen IV (manufactured by Abcam plc.) and an anti-Zo-1 antibody (Invitrogen). As necessary, antigen activation treatment (manufactured by Thermo Fisher Scientific) was performed with a microwave. […] In addition, in the outer layer of RPE cells, a Zo-1-positive apical surface was formed in the outermost surface, and a collagen-positive basal surface was formed in the inside thereof. […] Moreover, many characteristic ciliary marginal zone (CMZ) structures (places indicated by “[” in FIG. 7, about 3 to 10 per aggregate) in a boundary part between the layer of MITF-positive RPE and the layer of a Chx10-positive neural retina were found through observation (FIG. 7). Aggregated masses produced as in Example 1 by culturing under conditions involving addition of 1 μM PD407824 in addition to 1.5 nM BMP4 for 60 days from initiation of the suspension culture were fixed with 4% PFA, subjected to replacement with 20% sucrose, and then frozen and sectioned. These frozen sections were subjected to antigen activation treatment with a microwave, followed by immunostaining with DAPI, an anti-CHX10 antibody (trade name: Anti CHX10 Antibody, manufactured by EX alpha) and an anti-CRX antibody (manufactured by Takara Bio Inc.).

The subject of a further test is ES cells. Particulars: PD407824 and BMP in combination; cited from earlier work.
[3] abbreviates: 1 μM PD407824 with 1.5 nM BMP4 added Day 3, Day 21, FIG. 5.
Where [4] appears, read: PD407824 used in combination (1 μM PD407824 with 0.15 nM BMP4).

Turning to `O=C1NC(=O)c2c1c(-c1ccccc1)cc1[nH]c3ccc(O)cc3c21` [PD407824], the “production efficiency for Rx::Venus-positive NR” value in test [1] (1 μM PD407824 in combination, 0.15 nM BMP4 compared with 1.5 nM BMP4, Day 17) is reported as “higher production efficiency for Rx::Venus-positive NR was obtained when 0.15 nM BMP4 was added than when 1.5 nM BMP4 was added”. Moreover, the “production of retinal tissue” value in test [1] (1 μM PD407824 with 0.15 nM BMP4 (about 1/10 of normal) added Day 3, observed Day 17, FIG. 1) is reported as “retinal tissue can be produced”. In test [1] (1 μM PD407824 with 0.15 nM BMP4 added Day 3, Day 15 or 36, FIGS. 2 to 4), the “Rx::Venus-negative (non-target) cell masses” value is “Rx::Venus-negative masses were significantly reduced to result in high efficiency of differentiation into Rx::Venus-positive NR”. Besides, in test [1] (1 μM PD407824 with 1.5 nM BMP4, Day 17, FIG. 1), the “structure of the aggregate produced” value was “a sphere-like cell aggregate comprising a multilayer structure in which a layer of retinal pigment epithelial (RPE) cells was localized in the outside and a layer of neural retinal tissue (NR) was localized in the inside was produced”. In test [1] (setting [3]), the “shape of the aggregated mass” value is “favorable shape (a shape with a plurality of overlapping true spheres (e.g., cloverleaf))”; the “structure of the aggregate produced” value was “a sphere-like cell aggregate comprising a multilayer structure in which a layer of retinal pigment epithelial (RPE) cells was localized in the outside and a layer of neural retinal tissue (NR) was localized in the inside was produced”. In addition, in test [1] (1 μM PD with 0.15 nM BMP4 added Day 3, Day 9, FIG. 8), the “formation of Rx::Venus-positive neural retina” value is “an Rx::Venus-positive neural retina was formed through differentiation in the whole region of an aggregated mass”. For the same compound, the “structure of the aggregate produced” value in test [1] (1 μM or 3 μM PD407824 with 0.5 nM or 1.5 nM BMP4 added Day 3, Day 9, FIG. 8) is “a sphere-like cell aggregate comprising a multilayer structure of an outer layer of RPE cells and an inner layer of neural retinal tissue including many CMZs and having polarity was produced”. Also, in test [1] (95/96), the “proportion of cell aggregates produced having an almost truly spherical shape” value is recorded as “about 99%”. For the same compound, the “proportion of cell aggregates produced having an almost truly spherical shape” value in test [1] (case with failure in aggregated mass formation excluded) was determined as 100%. For the same compound, in test [1] (setting [4]), the “wells with a cell aggregate having an almost truly spherical shape, among 96 wells” value is given as 95 wells and the “wells with a cell aggregate with failure in aggregated mass formation, among 96 wells” value is reported as “one”. Besides, in test [2] (Day 25, FIG. 6), the “Chx10 staining (neural retinal progenitor cells), localisation” value was “Chx 10-positive neural retinal progenitor cells were contained in the inner cell layer”; the “MITF staining (RPE cells), localisation” value is reported as “MITF-positive RPE cells were contained in the outermost cell layer of each aggregated mass”; the “apical-basal polarity (Zo-1, collagen IV staining)” value is listed as “an aggregated mass with apical-and-basal polarity was formed”. In test [2] (Day 60, FIG. 9), the “Crx staining (photoreceptor cells), localisation” value was “Crx-positive photoreceptor cells were localized in the side close to RPE cells in the inner layer structure”; the “RPE cells and Chx10-positive retinal progenitor cells, localisation” value is “RPE cells having black pigments were contained in the outermost cell layer of an aggregated mass and Chx10-positive retinal progenitor cells inside of which a layer structure was formed were contained”. For the same compound, in the test with ES cells, the “effect on differentiation of ES cells into mesodermal cells” value was “enhance the differentiation of ES cells into mesodermal cells”.
